Measurements: PMC10014584
Results are given in words; binding and its absence hold for the method and conditions named. In cells and extracts the contact can be indirect. Some results given as binding are weak or reduced against the parent protein; the word gives no strength. Values belong to the binder of their own block, whether it stands above or below them.

Target: T1, SmBiT-STING (mouse) (UniProt Q3TBT3)
T1 sequence: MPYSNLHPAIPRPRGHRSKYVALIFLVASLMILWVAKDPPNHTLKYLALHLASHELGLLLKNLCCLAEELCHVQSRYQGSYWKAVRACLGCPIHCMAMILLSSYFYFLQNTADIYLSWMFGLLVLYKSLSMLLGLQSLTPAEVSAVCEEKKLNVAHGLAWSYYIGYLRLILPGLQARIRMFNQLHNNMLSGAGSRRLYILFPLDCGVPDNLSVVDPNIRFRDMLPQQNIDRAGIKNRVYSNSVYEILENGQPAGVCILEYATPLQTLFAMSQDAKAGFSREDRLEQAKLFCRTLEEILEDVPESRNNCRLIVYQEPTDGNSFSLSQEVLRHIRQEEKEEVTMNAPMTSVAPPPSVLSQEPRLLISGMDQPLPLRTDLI
Assay: split reporter; split NanoLuc luciferase assay in Sting-/- MEFs stably expressing both fusions; Nano-Glo Endurazine substrate 2 h at 37 °C, then vehicle (DMSO) or DMXAA for 4 h

binding: no binding
B1: LgBiT-Tsg101 (ΔUEV) (domain or fragment, UniProt Q61187 146-391)
chain: TVSASYPPYTATGPPNTSYMPGMPSGISAYPSGYPPNPSGYPGCPYPPAGPYPATTSSQYPSQPPVTTVGPSRDGTISEDTIRASLISAVSDKLRWRMKEEMDGAQAELNALKRTEEDLKKGHQKLEEMVTRLDQEVAEVDKNIELLKKKDEELSSALEKMENQSENNDIDEVIIPTAPLYKQILNLYAEENAIEDTIFYLGEALRRGVIDLDVFLKHVRLLSRKQFQLRALMQKARKTAGLSDLY

binding: binds
B2: LgBiT-Tsg101 (WT) (protein, UniProt Q61187 1-391)
chain: MAVSESQLKKMMSKYKYRDLTVRQTVNVIAMYKDLKPVLDSYVFNDGSSRELVNLTGTIPVRYRGNIYNIPICLWLLDTYPYNPPICFVKPTSSMTIKTGKHVDANGKIYLPYLHDWKHPRSELLELIQIMIVIFGEEPPVFSRPTVSASYPPYTATGPPNTSYMPGMPSGISAYPSGYPPNPSGYPGCPYPPAGPYPATTSSQYPSQPPVTTVGPSRDGTISEDTIRASLISAVSDKLRWRMKEEMDGAQAELNALKRTEEDLKKGHQKLEEMVTRLDQEVAEVDKNIELLKKKDEELSSALEKMENQSENNDIDEVIIPTAPLYKQILNLYAEENAIEDTIFYLGEALRRGVIDLDVFLKHVRLLSRKQFQLRALMQKARKTAGLSDLY
